In publication PMC10359276, “Involvement of skin TRPV3 in temperature detection regulated by TMEM79 in mice” (Nature Communications, 2023):
Results are given in words; binding and its absence hold for the method and conditions named. In cells and extracts the contact can be indirect. Some entries that bind do so weakly or less than the wild type. For part of these data: Tags and fused reporters may be left off the sequences shown. One block for each binder: values may come before it.

Experiments:
[1] = target: T1, C-terminal Flag-tagged mouse TMEM79 (mouse) (UniProt Q9D709); assay: co-IP; HEK293T cells co-transfected with myc-Trpv3 and Tmem79-flag; RIPA lysate; IP with mouse anti-MYC or mouse anti-FLAG overnight at 4 °C, protein G beads; blots with anti-myc and anti-flag
T1 sequence: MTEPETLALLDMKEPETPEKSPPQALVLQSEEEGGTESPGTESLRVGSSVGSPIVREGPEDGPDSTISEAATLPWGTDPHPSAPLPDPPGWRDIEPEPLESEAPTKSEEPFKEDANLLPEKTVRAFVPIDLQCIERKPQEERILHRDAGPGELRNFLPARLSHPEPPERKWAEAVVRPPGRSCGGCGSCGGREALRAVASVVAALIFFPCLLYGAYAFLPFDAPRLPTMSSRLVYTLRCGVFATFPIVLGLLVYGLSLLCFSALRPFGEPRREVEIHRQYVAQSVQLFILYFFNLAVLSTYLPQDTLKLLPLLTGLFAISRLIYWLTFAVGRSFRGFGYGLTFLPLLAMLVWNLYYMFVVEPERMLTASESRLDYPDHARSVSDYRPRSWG

[2] = target: T2, mouse TMEM79 (construct of the PLA assay) (mouse) (UniProt Q9D709); assay: proximity ligation; Duolink PLA in fixed, permeabilised HEK293 cells transfected with mTRPV3 and mTMEM79; mouse anti-TRPV3 and rabbit anti-TMEM79 primary antibodies; control: empty vectors
T2 sequence: T1 sequence

[3] = target: T3, N-terminal myc-tagged mouse TRPV3 (mouse) (UniProt Q8K424); assay: co-IP; HEK293T cells co-transfected with myc-Trpv3 and Tmem79-flag; RIPA lysate; IP with mouse anti-MYC or mouse anti-FLAG overnight at 4 °C, protein G beads; blots with anti-myc and anti-flag
T3 sequence: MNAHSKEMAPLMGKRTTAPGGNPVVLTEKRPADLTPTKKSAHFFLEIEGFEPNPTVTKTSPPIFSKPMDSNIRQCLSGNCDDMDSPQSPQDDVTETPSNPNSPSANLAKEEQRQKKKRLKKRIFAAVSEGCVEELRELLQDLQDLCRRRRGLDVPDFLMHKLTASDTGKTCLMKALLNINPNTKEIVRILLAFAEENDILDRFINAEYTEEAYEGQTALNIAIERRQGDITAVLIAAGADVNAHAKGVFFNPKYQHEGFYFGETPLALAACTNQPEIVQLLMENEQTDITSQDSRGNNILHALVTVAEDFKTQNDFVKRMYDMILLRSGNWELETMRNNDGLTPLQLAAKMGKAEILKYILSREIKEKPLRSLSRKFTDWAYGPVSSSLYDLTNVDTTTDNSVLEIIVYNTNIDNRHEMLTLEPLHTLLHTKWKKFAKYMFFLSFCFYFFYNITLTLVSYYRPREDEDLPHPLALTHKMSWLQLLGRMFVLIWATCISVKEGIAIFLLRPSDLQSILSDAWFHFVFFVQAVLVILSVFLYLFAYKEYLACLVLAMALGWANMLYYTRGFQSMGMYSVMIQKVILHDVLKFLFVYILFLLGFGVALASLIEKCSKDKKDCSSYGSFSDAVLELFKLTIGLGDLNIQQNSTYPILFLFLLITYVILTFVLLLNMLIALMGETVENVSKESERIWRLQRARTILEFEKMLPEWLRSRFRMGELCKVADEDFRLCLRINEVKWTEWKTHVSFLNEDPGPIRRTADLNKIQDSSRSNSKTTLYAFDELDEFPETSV

binding [1]: binds
B1: N-terminal myc-tagged mouse TRPV3 (protein, UniProt Q8K424 1-791)
chain: T3 sequence

binding [2]: binds
B2: mouse TRPV3 (construct of the PLA assay) (protein, UniProt Q8K424 1-791)
chain: T3 sequence

binding [3]: binds
B3: C-terminal Flag-tagged mouse TMEM79 (protein, UniProt Q9D709 1-391)
chain: T1 sequence
